Measured values taken from article doi:10.1101/2020.05.12.090688.
Results are given in words; binding and its absence hold for the method and conditions named. Binding seen in cells or lysates may run through a third protein. Some entries that bind do so weakly or less than the wild type. Tags and fused reporters may be left off the sequences shown.

Protein sequences, listed by entry. Tags and fused reporters are not part of them.
UniProt P29351: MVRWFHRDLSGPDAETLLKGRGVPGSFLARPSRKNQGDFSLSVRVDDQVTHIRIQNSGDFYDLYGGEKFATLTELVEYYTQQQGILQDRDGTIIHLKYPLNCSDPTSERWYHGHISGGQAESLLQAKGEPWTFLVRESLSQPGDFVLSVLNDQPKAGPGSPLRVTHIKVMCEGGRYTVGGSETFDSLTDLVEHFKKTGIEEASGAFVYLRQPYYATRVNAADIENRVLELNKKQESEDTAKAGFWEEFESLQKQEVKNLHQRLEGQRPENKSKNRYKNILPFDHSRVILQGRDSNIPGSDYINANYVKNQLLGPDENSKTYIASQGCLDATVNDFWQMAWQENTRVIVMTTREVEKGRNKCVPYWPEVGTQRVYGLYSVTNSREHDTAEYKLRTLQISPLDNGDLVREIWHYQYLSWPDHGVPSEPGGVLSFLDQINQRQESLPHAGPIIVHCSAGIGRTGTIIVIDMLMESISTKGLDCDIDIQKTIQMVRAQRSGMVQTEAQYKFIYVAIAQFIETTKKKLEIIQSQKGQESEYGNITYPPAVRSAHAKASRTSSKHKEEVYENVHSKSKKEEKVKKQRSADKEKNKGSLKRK

Biological target: T1, Siglec-F with C-terminal myc epitope tag (mouse) (UniProt Q920G3)
T1 sequence: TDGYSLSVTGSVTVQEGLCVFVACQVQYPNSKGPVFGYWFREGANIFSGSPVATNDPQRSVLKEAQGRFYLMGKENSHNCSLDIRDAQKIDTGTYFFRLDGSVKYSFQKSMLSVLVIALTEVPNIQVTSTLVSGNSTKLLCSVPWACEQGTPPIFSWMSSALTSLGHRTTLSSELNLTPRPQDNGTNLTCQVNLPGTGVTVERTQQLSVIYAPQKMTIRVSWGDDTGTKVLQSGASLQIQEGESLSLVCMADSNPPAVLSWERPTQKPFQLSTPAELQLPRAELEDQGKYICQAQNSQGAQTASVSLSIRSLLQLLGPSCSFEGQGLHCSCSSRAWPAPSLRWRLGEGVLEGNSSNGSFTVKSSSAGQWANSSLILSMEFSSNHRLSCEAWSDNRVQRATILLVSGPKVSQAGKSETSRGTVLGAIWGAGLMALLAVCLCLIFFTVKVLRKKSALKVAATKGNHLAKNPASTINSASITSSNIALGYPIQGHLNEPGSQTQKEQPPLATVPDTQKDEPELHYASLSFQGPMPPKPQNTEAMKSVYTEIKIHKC
Test: co-IP

Substance: SHP-1 (Ptpn6) (from UniProt P29351 1-595) (enzyme)
- binding: binds
